Article PMC11836120, “A small signaling domain controls PPIP5K phosphatase activity in phosphate homeostasis” (Nature Communications, 2025)
These are yes or no findings as the source states them, for the method shown. Each block holds one binder with its values, some of them ahead of it.

Legend:
[1] = biological target: S. cerevisiae Vip1 loop-truncated phosphatase domain (ScVip1^(PD Δ848-918), residues 536-1107, loop replaced by a Gly-Ser-Ser-Gly linker) (Saccharomyces cerevisiae) (UniProt Q06685); assay: crystal structure; apo ScVip1^(PD Δ848-918) crystals, 3.4 Å; protein in 20 mM Hepes pH 7.5, 150 mM NaCl, 0.5 mM zinc acetate; crystal packing between adjacent GAF domains; both purified
[2] = biological target: S. cerevisiae Vip1 phosphatase domain (ScVip1^PD, residues 536-1107) (Saccharomyces cerevisiae) (UniProt Q06685); assay: SEC; analytical size-exclusion chromatography, Superdex 200 Increase 10/300 GL, 20 mM Hepes pH 7.5, 150 mM NaCl, 0.75 ml/min; both purified

binding [1]: no binding
B1: S. cerevisiae Vip1 loop-truncated phosphatase domain (ScVip1^(PD Δ848-918), residues 536-1107, loop replaced by a Gly-Ser-Ser-Gly linker) (domain or fragment, UniProt Q06685 536-847; Q06685 919-1107)
chain: KWVFKGLAIIIRHADRTPKQKFKHSFTSPIFISLLKGHKEEVVIRNVNDLKIVLQALRIALDEKAGNPAKIKVLANALEKKLNFPGTKIQLKPVLNKENEVEKVQFILKWGGEPTHSAKYQATELGEQMRQDFDLLNKSILQNIKIFSSSERRVLHTAQYWTRALFGADELGSDEISIRKDLLDDSNAAKDLMDKVKKKLKPLLREGKEAPPQFAWPSKMPEPYLVIKRVVELMNYHKKIMDNNFAKKDVNSMQTRWCTSEDPSLFKERWDKLFKEFNNAEKVDPSKISELYDTMKYDALHNRQFLENIFDPGSSGQFDEPRFMQLRELYKLAKVLFDFICPKEYGISDAEKLDIGLLTSLPLAKQILNDIGDMKNRETPACVAYFTKESHIYTLLNIIYESGIPMRIARNALPELDYLSQITFELYESTDASGQKSHSIRLKMSPGCHTQDPLDVQLDDRHYISCIPKISLTKHLDMDYVQQKLRNKFTRVIMPPKFTPVNITS

binding [2]: no binding
B2: S. cerevisiae Vip1 phosphatase domain (ScVip1^PD, residues 536-1107) (domain or fragment, UniProt Q06685 536-1107)
chain: KWVFKGLAIIIRHADRTPKQKFKHSFTSPIFISLLKGHKEEVVIRNVNDLKIVLQALRIALDEKAGNPAKIKVLANALEKKLNFPGTKIQLKPVLNKENEVEKVQFILKWGGEPTHSAKYQATELGEQMRQDFDLLNKSILQNIKIFSSSERRVLHTAQYWTRALFGADELGSDEISIRKDLLDDSNAAKDLMDKVKKKLKPLLREGKEAPPQFAWPSKMPEPYLVIKRVVELMNYHKKIMDNNFAKKDVNSMQTRWCTSEDPSLFKERWDKLFKEFNNAEKVDPSKISELYDTMKYDALHNRQFLENIFDPGLPNEAIADELGSHSLVDRYPINVLAKNNFKIIDSHSMNNSGKNSSNSVGSLGWVLESGKTSTARNPKSSSQFDEPRFMQLRELYKLAKVLFDFICPKEYGISDAEKLDIGLLTSLPLAKQILNDIGDMKNRETPACVAYFTKESHIYTLLNIIYESGIPMRIARNALPELDYLSQITFELYESTDASGQKSHSIRLKMSPGCHTQDPLDVQLDDRHYISCIPKISLTKHLDMDYVQQKLRNKFTRVIMPPKFTPVNITS
